Read-outs that look alike come from different tables or passages of the source. These are yes or no findings as the source states them, for the method shown. In cells and extracts the contact can be indirect. Some results given as binding are weak or reduced against the parent protein; the word gives no strength. Blank lines part the entries; values can stand above or below the molecule they belong to.
Key:
[1] = molecular target: murine protein serine-threonine kinase 38 (MPK38)/maternal embryonic leucine zipper kinase (MELK) (human (endogenous in HEK293)) (UniProt Q14680); experiment: co-IP; HEK293 cell lysates, immunoprecipitation with an anti-MPK38 antibody, immunoblot with anti-Mdm2, anti-Trx or anti-ZPR9 antibodies (endogenous complexes); cells transfected with FLAG- or GST-tagged wild-type or mutant Smads2/3/4/7 or Smad-specific siRNAs
[2] = molecular target: murine protein serine-threonine kinase 38 (MPK38)/maternal embryonic leucine zipper kinase (MELK) (human (endogenous in HEK293)) (UniProt Q14680); experiment: as above; remark: listed apart in the source

The chains behind the UniProt entries cited, without tags or fusion partners.
UniProt Q14680: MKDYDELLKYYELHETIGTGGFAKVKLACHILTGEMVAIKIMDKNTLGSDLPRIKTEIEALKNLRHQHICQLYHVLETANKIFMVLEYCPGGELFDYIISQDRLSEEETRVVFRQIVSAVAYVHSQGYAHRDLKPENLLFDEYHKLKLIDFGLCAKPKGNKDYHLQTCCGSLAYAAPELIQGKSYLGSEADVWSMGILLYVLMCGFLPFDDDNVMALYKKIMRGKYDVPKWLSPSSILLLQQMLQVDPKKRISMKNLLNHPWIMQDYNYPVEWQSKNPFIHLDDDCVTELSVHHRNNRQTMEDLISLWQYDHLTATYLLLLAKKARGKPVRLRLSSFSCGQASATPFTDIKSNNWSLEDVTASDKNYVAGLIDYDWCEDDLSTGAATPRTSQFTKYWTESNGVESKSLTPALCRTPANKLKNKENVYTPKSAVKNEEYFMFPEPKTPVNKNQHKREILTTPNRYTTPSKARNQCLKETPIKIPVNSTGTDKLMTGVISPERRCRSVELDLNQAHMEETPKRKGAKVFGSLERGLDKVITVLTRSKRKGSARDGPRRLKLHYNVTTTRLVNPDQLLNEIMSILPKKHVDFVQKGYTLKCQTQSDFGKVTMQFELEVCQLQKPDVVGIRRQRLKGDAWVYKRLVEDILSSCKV
UniProt Q00987: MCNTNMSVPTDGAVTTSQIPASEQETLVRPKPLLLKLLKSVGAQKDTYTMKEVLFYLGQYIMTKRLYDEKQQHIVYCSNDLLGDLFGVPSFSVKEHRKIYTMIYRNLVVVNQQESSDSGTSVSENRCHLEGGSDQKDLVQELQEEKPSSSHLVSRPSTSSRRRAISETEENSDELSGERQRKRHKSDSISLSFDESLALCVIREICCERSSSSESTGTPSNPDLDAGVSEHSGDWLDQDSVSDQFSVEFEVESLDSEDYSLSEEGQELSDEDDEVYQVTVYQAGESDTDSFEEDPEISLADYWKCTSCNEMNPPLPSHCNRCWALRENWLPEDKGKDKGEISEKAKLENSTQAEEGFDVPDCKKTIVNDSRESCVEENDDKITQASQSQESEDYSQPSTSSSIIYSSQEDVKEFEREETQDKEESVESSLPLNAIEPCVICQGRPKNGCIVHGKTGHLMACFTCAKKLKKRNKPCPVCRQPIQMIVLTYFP

binding [1]: binds
Molecule: Mdm2 (from UniProt Q00987 1-491)

binding [2]: binds
B1: thioredoxin (Trx) (protein, UniProt P10599 1-105)
chain: MVKQIESKTAFQEALDAAGDKLVVVDFSATWCGPCKMIKPFFHSLSEKYSNVIFLEVDVDDCQDVASECEVKCMPTFQFFKKGQKVGEFSGANKEKLEATINELV

binding [2]: binds
B2: zinc-finger-like protein 9 (ZPR9) (protein, UniProt Q969S3 1-477)
chain: MATYTCITCRVAFRDADMQRAHYKTDWHRYNLRRKVASMAPVTAEGFQERVRAQRAVAEEESKGSATYCTVCSKKFASFNAYENHLKSRRHVELEKKAVQAVNRKVEMMNEKNLEKGLGVDSVDKDAMNAAIQQAIKAQPSMSPKKAPPAPAKEARNVVAVGTGGRGTHDRDPSEKPPRLQWFEQQAKKLAKQQEEDSEEEEEDLDGDDWEDIDSDEELECEDTEAMDDVVEQDAEEEEAEEGPPLGAIPITDCLFCSHHSSSLMKNVAHMTKDHSFFIPDIEYLSDIKGLIKYLGEKVGVGKICLWCNEKGKSFYSTEAVQAHMNDKSHCKLFTDGDAALEFADFYDFRSSYPDHKEGEDPNKAEELPSEKNLEYDDETMELILPSGARVGHRSLMRYYKQRFGLSRAVAVAKNRKAVGRVLQQYRALGWTGSTGAALMRERDMQYVQRMKSKWMLKTGMKNNATKQMHFRVQVRF

— article PMC5920110
